Experimental findings from paper PMC6628435, “Chemical Synthesis, Proper Folding, Nav Channel Selectivity Profile and Analgesic Properties of the Spider Peptide Phlotoxin 1” (Toxins, 2019) are described below.

The conditions of this data set: mouse, in vivo.

Take `CN1CC[C@]23c4c5ccc(O)c4O[C@H]2[C@@H](O)C=C[C@H]3[C@H]1C5` [morphine, reference compound]: the “neurotoxicity after intrathecal injection” value is listed as “no neurotoxicity was observed”.
